The term EC50 denotes the concentration at which the effect is half-maximal. A high value points to a less potent agent.

Protein sequences, listed by entry. Tags and fused reporters are not part of them. Residues count along the entry.
UniProt Q9NYK1, 27-1049 limits assumed: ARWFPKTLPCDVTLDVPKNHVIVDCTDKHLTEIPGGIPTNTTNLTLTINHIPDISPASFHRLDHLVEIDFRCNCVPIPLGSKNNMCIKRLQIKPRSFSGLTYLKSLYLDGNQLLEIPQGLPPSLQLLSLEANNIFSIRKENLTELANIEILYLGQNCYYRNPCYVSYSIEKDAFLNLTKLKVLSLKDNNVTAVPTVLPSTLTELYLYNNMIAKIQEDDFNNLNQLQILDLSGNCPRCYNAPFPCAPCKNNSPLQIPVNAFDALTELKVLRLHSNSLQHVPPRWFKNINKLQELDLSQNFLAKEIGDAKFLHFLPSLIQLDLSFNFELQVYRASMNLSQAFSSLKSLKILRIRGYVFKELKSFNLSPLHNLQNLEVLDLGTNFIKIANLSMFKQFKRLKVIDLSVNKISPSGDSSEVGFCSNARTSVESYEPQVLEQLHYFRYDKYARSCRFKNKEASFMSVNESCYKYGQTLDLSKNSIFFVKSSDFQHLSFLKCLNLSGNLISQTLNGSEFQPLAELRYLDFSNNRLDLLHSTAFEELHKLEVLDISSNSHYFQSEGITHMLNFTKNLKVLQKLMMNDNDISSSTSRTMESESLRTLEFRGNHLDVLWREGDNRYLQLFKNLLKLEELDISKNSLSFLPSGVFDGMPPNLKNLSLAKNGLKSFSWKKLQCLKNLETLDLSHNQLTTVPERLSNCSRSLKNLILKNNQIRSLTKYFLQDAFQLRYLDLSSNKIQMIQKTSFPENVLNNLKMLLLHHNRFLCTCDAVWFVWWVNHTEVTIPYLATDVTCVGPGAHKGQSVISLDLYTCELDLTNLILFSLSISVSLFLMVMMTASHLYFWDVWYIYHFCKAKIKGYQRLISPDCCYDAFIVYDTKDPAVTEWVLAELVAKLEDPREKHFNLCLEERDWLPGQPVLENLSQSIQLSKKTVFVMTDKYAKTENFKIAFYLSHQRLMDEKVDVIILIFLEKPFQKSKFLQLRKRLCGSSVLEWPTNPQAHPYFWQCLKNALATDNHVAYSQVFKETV

The match of structure and compound is tentative.

Here are results for one compound from US12569566B2, “Compositions containing, methods and uses of antibody-TLR agonist conjugates” (Ambrx, Inc., priority 2019, dated 2026).

The target of the test is hTLR7 (Homo sapiens, UniProt Q9NYK1). The test is described as follows: HEK-Blue hTLR7 reporter assay (NF-kB-induced SEAP, Quanti-Blue, OD 655 nm). The following applies: FIG. 4; TLR7 agonists stimulation in HEK-Blue hTLR7 reporter cell line, 24 h. A general note: In a reporter assay the amount or activity of a reporter protein is the signal.

For the compound `CCCCc1nc2c(N)nc3ccccc3c2n1CCOCCNC(=O)OC(C)(C)C`, the EC50 was 435 nM.
